According to paper PMC5006984:

Biological target: T1, human MICB (human) (UniProt Q29980)
T1 sequence: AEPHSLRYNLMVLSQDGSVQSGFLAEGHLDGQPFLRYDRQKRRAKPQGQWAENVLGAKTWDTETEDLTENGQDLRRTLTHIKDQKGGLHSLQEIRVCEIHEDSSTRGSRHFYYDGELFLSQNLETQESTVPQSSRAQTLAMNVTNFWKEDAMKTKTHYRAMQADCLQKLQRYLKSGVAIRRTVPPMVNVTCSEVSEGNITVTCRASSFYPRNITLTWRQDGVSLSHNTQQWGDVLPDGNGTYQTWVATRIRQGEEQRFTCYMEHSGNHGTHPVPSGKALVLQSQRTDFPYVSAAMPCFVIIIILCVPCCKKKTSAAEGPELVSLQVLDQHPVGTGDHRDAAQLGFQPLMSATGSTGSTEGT
Assay: affinity purification with mass spectrometry; preparative anti-MICB mAb immunoprecipitation from RhCMV-infected U373-MICB cells lysed at 48 hpi; SDS-PAGE, Coomassie staining; band excised, trypsin, LC-MS/MS

For “RhCMV Rh159 (expressed from RhCMV 68-1 in infected cells)”, the binding was “binds”.

No constants are given. Whether binding was seen depends on the method and setting. Binding seen in cells or lysates may run through a third protein. A yes stands for co-enrichment or nearness to the bait. Other partners may have been found.
